From paper PMC10332324
These are yes or no findings as the source states them, for the method shown. Binding seen in cells or lysates may run through a third protein. Here binding means that the protein was enriched with, or labelled near, the bait; the list need not be complete. A no says only that the protein was not detected with the bait.

B1: Collapsin Response Mediator Protein (CRMP) (protein, UniProt Q8IPQ2 1-594)
chain: MSTSPKPVKKVPIHLQSAQNRVYIKNGEIVNHDKSFKADVYIEDGIIKFVGPSSEITIPGGVRTIDASGLMIIPGGIDPHTHMQLPFGGAVAVDDFYHGTKAAVAGGTTMIIDFVLPNKHESMIEAYDKWRSWADPKVCCDYGLHVGITWWSKSVSEEIGILCKELGVNSFKTFMAYKGLYQLNDSDLLDVFERIRHLNGVAMVHAENGDIIAKNTQRLLAEGINGPEGHELSRPEEVEAEAVHRACVLAHQADCPLYVVHVMSKSAGIELARARHRYRGRYIMGETLAAALGTDATCCQHLGFDAEAAHVLSPPLRPDKTTPEFLMKLLANDDLQLTGSDNCTFNKEHKALGKGDFTKIPNGVNGVEDRMSLVWEKGVHAGLLDPCRFVAVTSTNAAKIFNIYPQKGRIAVGSDADIVIWNPNATRTISKDTHHHACDFNIFEGMTVHGVCEFVLVRGRICAERGNVRVAEGFGRFIPTPVRPPFVYDIIEGKVQSQPEEQHEEKQNGSMAKRFAELDIQIPVQEPISAMLAGNLAMPAEGSLCSTPSVRGRVDGKRDLQESSFSISEELDRSGVRACIKVKNPPGGKSSGFW
B2: Upf1 RNA helicase (Upf1) (protein, UniProt Q9VYS3 1-1180)
chain: MSVDTYAPSSALSFLDMDDNELLPGADTQPTQYDYRDFTMPSTSQSQTQNDQLEIAQRCSAGDSHPRLASITNDLADLQFEEEDDEPGSSYVKELPPHACKYCGIHDPATVVMCNNCRKWFCNGRGSTSGSHIINHLVRAKHREVTLHGEGPLGETILECYSCGVRNVFVLGFIPAKADSVVVLLCRQPCAAQNSLKDMNWDQEQWKPLIADRCFLAWLVKQPSEQGQLRARQISAAQINKLEELWKENIEATFQDLEKPGIDSEPAHVLLRYEDGYQYEKTFGPLVRLEAEYDQKLKESATQENIEVRWDVGLNKKTIAYFTLAKTDSDMKLMHGDELRLHYVGELYNPWSEIGHVIKVPDNFGDDVGLELKSSTNAPVKCTSNFTVDFIWKCTSFDRMTRALCKFAIDRNSVSNFIYSRLLGHGRADSNDEVLFRGPQPKLFSAPHLPDLNRSQVYAVKHALQRPLSLIQGPPGTGKTVTSATIVYQLVKLHGGTVLVCAPSNTAVDQLTEKIHRTNLKVVRVCAKSREAIDSPVSFLALHNQIRNMETNSELKKLQQLKDETGELSSADEKRYRNLKRAAENQLLEAADVICCTCVGAGDGRLSRVKFTSILIDESMQSTEPECMVPVVLGAKQLILVGDHCQLGPVVMCKKAARAGLSQSLFERLVVLGIRPFRLEVQYRMHPELSQFPSNFFYEGSLQNGVCAEDRRLKLDFPWPQPERPMFFLVTQGQEEIAGSGTSFLNRTEAANVEKITTRFLKAGIKPEQIGIITPYEGQRAYLVQYMQYQGSLHSRLYQEIEIASVDAFQGREKDIIIMSCVRSNERQGIGFLNDPRRLNVALTRAKFGIIIVGNPKVLAKQQLWNHLLNFYKDRKVLVEGSLNNLKESLIHFQKPKKLVNSMNIGAHFMSTIIADAKEVMVPGSIYDRSGGYGQGRQMVGQSMNGGQYGGSGGGPYGNSPLGYGTPSSNSMVGFGLGNGGNGAAGGNNNFGGAGPSWAAAHLHHDSIGYISNEHGAAALGNMPVPVGMFMNMSNIPPRFYNQHQQAIMAVKQNRAIQQQTGNFSPGNSGPGVTGVGVGRSATPGGNKKTNKLGKSRVTGGGTGGAPLTQGSSVCNAAPYSQHPMPLSLQMTQPSGFALSQQPELSQDFGQISQMDGLLSQDVAFNASGERSLNQFSQPY
B3: Staufen (Stau) (protein, UniProt P25159 1-1026)
chain: MQHNVHAARPAPHIRAAHHHSHSHAHMHLHPGMEQHLGPSLQQQQQPPPPPQQPPHRDLHARLNHHHLHAQQQQQQQTSSNQAGAVAAAGAAYHHGNINSNSGSNISSNSNQMQKIRQQHQHLSSSNGLLGNQPPGPPPQAFNPLAGNPAALAYNQLPPHPPHHMAAHLGSYAAPPPHYYMSQAKPAKYNHYGSNANSNSGSNNSNSNYAPKAILQNTYRNQKVVVPPVVQEVTPVPEPPVTTNNATTNSTSNSTVIASEPVTQEDTSQKPETRQEPASADDHVSTGNIDATGALSNEDTSSSGRGGKDKTPMCLVNELARYNKITHQYRLTEERGPAHCKTFTVTLMLGDEEYSADGFKIKKAQHLAASKAIEETMYKHPPPKIRRSEEGGPMRTHITPTVELNALAMKLGQRTFYLLDPTQIPPTDSIVPPEFAGGHLLTAPGPGMPQPPPPPAYALRQRLGNGFVPIPSQPMHPHFFHGPGQRPFPPKFPSRFALPPPLGAHVHHGPNGPFPSVPTPPSKITLFVGKQKFVGIGRTLQQAKHDAAARALQVLKTQAISASEEALEDSMDEGDKKSPISQVHEIGIKRNMTVHFKVLREEGPAHMKNFITACIVGSIVTEGEGNGKKVSKKRAAEKMLVELQKLPPLTPTKQTPLKRIKVKTPGKSGAAAREGSVVSGTDGPTQTGKPERRKRLNPPKDKLIDMDDADNPITKLIQLQQTRKEKEPIFELIAKNGNETARRREFVMEVSASGSTARGTGNSKKLAKRNAAQALFELLEAVQVTPTNETQSSEECSTSATMSAVTAPAVEATAEGKVPMVATPVGPMPGILILRQNKKPAKKRDQIVIVKSNVESKEEEANKEVAVAAEENSNNSANSGDSSNSSSGDSQATEAASESALNTSTGSNTSGVSSNSSNVGANTDGNNHAESKNNTESSSNSTSNTQSAGVHMKEQLLYLSKLLDFEVNFSDYPKGNHNEFLTIVTLSTHPPQICHGVGKSSEESQNDAASNALKILSKLGLNNAMK
B4: Acinus (Acn) (protein, UniProt Q9VJ12 1-739)
chain: MRRRSERKKSSSPAPVPVAVARRSRRSRKVSENEKTEVETPVVAQNNEAECPKVPPASQEINEARASSEERAGSGASPVRRSRGSRTTPRKRTESKGGDKKVDTIPEEEPENGKDVEKDAVEEEKTVAPPAANESESEDRAKTEDQQAQDDESCAEPAVVKDDDVEKEDLKPQQEVPTSTDDDTKQSEPEQEVKVPSPSSKDEEHLKTTSDVLDIQTEEVDERDEEASAPAERRETKKRHKEQIKEQQPAEEEEHKENHKQIDENPEQIHDEPADLSNDKHDPCLNSSATNTTGAPVLQQQRSVRKRKWLTNKKSSDRTPPVLAISTDSLKNIIADVVQPVPLSDVQLESSSEEEGLVTSDRDSERSASPAPPSEASKDRDNKGNTANTCDTTAEASADNEGAGAAPPAAADTVSAQVSLSKATVSTAAPHIVRDPSPARNRASHVLYITNLVRPFTVLQLKGLLARTGKIVEEDGFWIDRIKSKCYVAYSTEDEAIETRHALHGVRWPVSNPKCLNVDFGSRTDMDRAILSTKDEAPRYGQENTRDNQQSGNAWSRLEPSDKKPARPVREWDVGKKEPSDHDKHSNDRRRDSKDRLDSRSRDAERAGQERKRSRDREGRGRDRERERLDRNAHARSRSGSPASKTKKENEPPIRLLDDLFRKTKGTPCIYWLPLTPEAIAEKEAFRQKRIEEHKLRIKEREERQKEREKDRDRQRETRRNRSNERRRSRSRERERRRY
B5: Argonaute 2 (AGO2) (protein, UniProt Q9VUQ5 1-1214)
chain: MGKKDKNKKGGQDSAAAPQPQQQQKQQQQRQQQPQQLQQPQQLQQPQQLQQPQQQQQQQPHQQQQQSSRQQPSTSSGGSRASGFQQGGQQQKSQDAEGWTAQKKQGKQQVQGWTKQGQQGGHQQGRQGQDGGYQQRPPGQQQGGHQQGRQGQEGGYQQRPPGQQQGGHQQGRQGQEGGYQQRPSGQQQGGHQQGRQGQEGGYQQRPPGQQQGGHQQGRQGQEGGYQQRPSGQQQGGHQQGRQGQEGGYQQRPPGQQQGGHQQGRQGQEGGYQQRPPGQQQGGHEQGRQGQEGGYQQRPSGQQQGGHQQGRQGQEGGYQQRPSGQQQGGHQQGRQGQEGGYQQRPSGQQQGGHQQGRQGQEGGYQQRPPGQQPNQTQSQGQYQSRGPPQQQQAAPLPLPPQPAGSIKRGTIGKPGQVGINYLDLDLSKMPSVAYHYDVKIMPERPKKFYRQAFEQFRVDQLGGAVLAYDGKASCYSVDKLPLNSQNPEVTVTDRNGRTLRYTIEIKETGDSTIDLKSLTTYMNDRIFDKPMRAMQCVEVVLASPCHNKAIRVGRSFFKMSDPNNRHELDDGYEALVGLYQAFMLGDRPFLNVDISHKSFPISMPMIEYLERFSLKAKINNTTNLDYSRRFLEPFLRGINVVYTPPQSFQSAPRVYRVNGLSRAPASSETFEHDGKKVTIASYFHSRNYPLKFPQLHCLNVGSSIKSILLPIELCSIEEGQALNRKDGATQVANMIKYAATSTNVRKRKIMNLLQYFQHNLDPTISRFGIRIANDFIVVSTRVLSPPQVEYHSKRFTMVKNGSWRMDGMKFLEPKPKAHKCAVLYCDPRSGRKMNYTQLNDFGNLIISQGKAVNISLDSDVTYRPFTDDERSLDTIFADLKRSQHDLAIVIIPQFRISYDTIKQKAELQHGILTQCIKQFTVERKCNNQTIGNILLKINSKLNGINHKIKDDPRLPMMKNTMYIGADVTHPSPDQREIPSVVGVAASHDPYGASYNMQYRLQRGALEEIEDMFSITLEHLRVYKEYRNAYPDHIIYYRDGVSDGQFPKIKNEELRCIKQACDKVGCKPKICCVIVVKRHHTRFFPSGDVTTSNKFNNVDPGTVVDRTIVHPNEMQFFMVSHQAIQGTAKPTRYNVIENTGNLDIDLLQQLTYNLCHMFPRCNRSVSYPAPAYLAHLVAARGRVYLTGTNRFLDLKKEYAKRTIVPEFMKKNPMYFV
B6: Numb (protein, UniProt P16554 1-556)
chain: MGNSSSHTHEPLERGFTRGKFGDVKNGKSASFRFSKKSPKKMDRLRRSFRDSFRRRKDRVPESSKPHQWQADEEAVRSATCSFSVKYLGCVEVFESRGMQVCEEALKVLRQSRRRPVRGLLHVSGDGLRVVDDETKGLIVDQTIEKVSFCAPDRNHERGFSYICRDGTTRRWMCHGFLACKDSGERLSHAVGCAFAVCLERKQRRDKECGVTMTFDTKNSTFTRTGSFRQQTLTERLAMATVGTNERSVDGPGSAMPGPPAATVKPFNPFAIERPHATPNMLERQSSFRLSTIGSQSPFKRQMSLRINDLPSNADRQRAFLTAAAGNPMQTPLRSVSPIAEVSPAKSAGADPLSAAAVAADSVSQLCQELSQGLSLLTQTDALLAAGEDLNFNNNRSINQNIIAAEKQVQHVHSYAPPTAQVTPRVASTTPTYQTLHSQSPSRSEQSIETSTELPNAEQWLGHVVRSTSPAAPKRPTYLANVGRAQTLASGTGAAVGGGGPDDPFDAEWVANVAAAKQLSPDLPIPSTARSPLARHSTNPFISPPKAPAQSFQVQL
B7: maternal expression at 31B (Me31b) (protein, UniProt P23128 1-459)
chain: MMTEKLNSGHTNLTSKGIINDLQIAGNTSDDMGWKSKLKLPPKDNRFKTTDVTDTRGNEFEEFCLKRELLMGIFEKGWERPSPIQEAAIPIALSGKDVLARAKNGTGKTGAYCIPVLEQIDPTKDYIQALVMVPTRELALQTSQICIELAKHLDIRVMVTTGGTILKDDILRIYQKVQLIIATPGRILDLMDKKVADMSHCRILVLDEADKLLSLDFQGMLDHVILKLPKDPQILLFSATFPLTVKNFMEKHLREPYEINLMEELTLKGVTQYYAFVQERQKVHCLNTLFSKLQINQSIIFCNSTQRVELLAKKITELGYCCYYIHAKMAQAHRNRVFHDFRQGLCRNLVCSDLFTRGIDVQAVNVVINFDFPRMAETYLHRIGRSGRFGHLGIAINLITYEDRFDLHRIEKELGTEIKPIPKVIDPALYVANVGASVGDTCNNSDLNNSANEEGNVSK

Each binder was assayed against FLAG-tagged Caper (Drosophila melanogaster) (assay: affinity purification with mass spectrometry; IP from adult Drosophila head lysate (neural-enriched) of flies overexpressing FLAG-Caper, with anti-FLAG M2 magnetic beads (4 h, 4 °C; control yw heads) and with a polyclonal anti-Caper antibody (control rabbit serum); LC-MS of the IPs; hits at adjusted p < 0.05 and log-fold change > 0).

Row | binding | Binder
1 | no binding | B1
2 | binds | B2
3 | no binding | B3
4 | binds | B4
5 | binds | B5
6 | binds | B6
7 | binds | B7
